Measurements as given in PubChem BioAssay AID504444 (National Center for Advancing Translational Sciences (NCATS), 2011).
The campaign covered roughly 360,000 compounds. About 7,500 (2.1%) were called active. This list was built around the results that the source calls inconclusive (neither active nor inactive); the mix of calls is not that of the screen. Calls follow the shape of the dose curve; as a rule, active = well fitted inhibition curve with a large enough effect; inconclusive = small, poorly fitted or top-dose-only effect, or effect the other way; inactive = flat fitted curve, though single readings scatter. Potencies beside an inconclusive call are fits to weak or partial responses and may not hold up.
% is scaled to controls: 0 for no effect and ±100 for the full control effect; potency is read from the fitted curve at half-maximal effect.

Experiment: Nrf2 qHTS screen for inhibitors; also: nearly all actives have a fitted effect of over 60% in size
Conditions: A549 ARE-Fluc reporter, luciferase luminescence, 18-24 h; activity change, negative = inhibition: at 46 µM (top of the series)
Outline: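 A549 ARE_Fluc cells, 5000/well, 5% FBS OPTI-MEM; compounds in dose-response, 18-24 h at 37 °C/5% CO2; CellTiter-Fluor viability read (Ex 405/Em 525), then BugLite luciferase luminescence = Nrf2 activity.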
For `COc1ccc(CSC2=NCCN2)cc1Cl`, the Potency was inconclusive: 29.1 µM [activator, single point].
For `COc1cc(S(=O)(=O)NC2CCCCC2C)ccc1Cl` (stereo not given), the Potency was inconclusive: 25.9 µM [falling, single point].
For `CCOC(=O)C1CCN(C(=O)c2c(C)oc3c2C(=O)c2ccccc2C3=O)CC1`, the Potency was inconclusive: 29.1 µM [falling, single point].
With `O=C(NCC1CCN(Cc2ccccc2F)CC1)Nc1ccc(F)c(Cl)c1` the Potency was inconclusive: 29.1 µM [falling, single point].
With `COc1cccc(CNc2ccc(F)c(Cl)c2)c1` the “activity change, negative = inhibition” value was inactive: -23.7%.
With `CN=C1S/C(=C\c2cccc(Cl)c2Cl)C(=O)N1C` the Potency was inconclusive: 2.06 µM [falling, full curve, poor fit].
In the case of `O=C(Nc1ccc([N+](=O)[O-])cc1)Nc1ccc(Cl)cc1F`, the Potency is reported as inconclusive: 29.1 µM [falling, single point].
In the case of `Cc1ccc(-c2ccc(OC(=O)c3ccc(=O)[nH]c3)c(C)c2)cc1`, the “activity change, negative = inhibition” value is reported as inactive: -7.04%.
In the case of `O=C(Nc1ccc2c(c1)OCCO2)c1cccc(Cl)c1`, the Potency is reported as inconclusive: 10.3 µM [activator, partial curve].
For `CCCOc1ccc(C(=O)Nc2cc3c(cc2N2CCCCC2)n(C)c(=O)n3C)cc1`, the “activity change, negative = inhibition” value was inactive: -0.259%.
With `O=C(O)CSc1ncnc2sc(-c3ccccc3)cc12` the “activity change, negative = inhibition” value was inactive: -3.89%.
With `COCCn1c(C)cc(C(=O)COC(=O)c2cccnc2SC)c1C` the Potency was inconclusive: 9.2 µM [activator, partial curve].
With `CCC(=O)Oc1ccc(C(=O)Nc2ccc3c(c2)C(=O)N(C2CCCCC2)C3=O)cc1` the Potency was inconclusive: 32.6 µM [falling, single point].
With `O=C(COc1cccc(C(F)(F)F)c1)Nc1ccc(S(=O)(=O)N2CCCC2)cc1` the Potency was inconclusive: 14.6 µM [falling, single point].
In the case of `CN1C(N)=NC(=O)/C1=C/c1ccc(OC(F)(F)F)cc1`, the Potency is reported as inconclusive: 20.6 µM [activator, single point].
With `CCn1c(=O)c2cc(C(=O)N(C)c3ccccc3F)sc2c2ccccc21` the Potency was inconclusive: 20.6 µM [falling, partial curve, poor fit].
With `CCCc1nnc(SCC(=O)Nc2ccc(OC)cc2)o1` the Potency was inconclusive: 1.84 µM [activator, full curve, poor fit].
In the case of `Cc1ccc2oc(C(=O)Nc3ccc(S(=O)(=O)Nc4nccc(C)n4)cc3)cc(=O)c2c1`, the Potency is reported as inconclusive: 13 µM [falling, partial curve, poor fit].
In the case of `COc1ccc(Br)cc1CNC(=O)CN1C(=O)c2cccnc2Oc2ccc(C)cc21`, the “activity change, negative = inhibition” value is reported as inactive: -11%.
With `O=C(O)c1ccc(CSc2nc(-c3ccccc3)cc(C(F)(F)F)n2)cc1` the Potency was inconclusive: 6.51 µM [falling, partial curve, poor fit].
In the case of `COc1ccc(NC(=O)c2nc(-c3ccc(C)cc3)n3c2CCCCC3)cc1`, the “activity change, negative = inhibition” value is reported as inactive: -29.7%.
With `COc1cccc(C(=O)N(Cc2nc(-c3ccc(Cl)cc3)no2)C(C)C)c1OC` the “activity change, negative = inhibition” value was inactive: -24.3%.
With `COc1ccc(Oc2nc3c(c(=O)n(Cc4ccc(Br)cc4)c(=O)n3C)n2C)cc1` the “activity change, negative = inhibition” value was inactive: 1.93%.
For `CCOC(=O)c1ccccc1OC(=O)Oc1ccccc1C(=O)OCC`, the Potency was inconclusive: 20.6 µM [activator, single point].
In the case of `Cc1ccc(NC(=O)NN2CCN(C)CC2)cc1C`, the Potency is reported as inconclusive: 1.3 µM [activator, full curve, poor fit].
In the case of `COc1ccc(-c2nc(NC(=O)c3cc(C(C)(C)C)nn3C)sc2C)cc1`, the Potency is reported as active: 18.4 µM.
With `O=C1N/C(=C\c2ccccc2)c2ccccc21` the Potency was inconclusive: 11.6 µM [activator, partial curve].
In the case of `C=CCOc1ccc(Br)cc1CNC(C)(C)C`, the “activity change, negative = inhibition” value is reported as inactive: 15.2%.
With `Cc1nc2nc(CNC(=O)c3cccc(F)c3)nn2c(C)c1CCC(=O)Nc1cccc(Cl)c1` the “activity change, negative = inhibition” value was inactive: 9.77%.
For `Cc1nn(C(C)C(=O)Nc2ccccc2C(F)(F)F)c(=O)c2c1sc1ccccc12` (stereo not given), the Potency was inconclusive: 29.1 µM [activator, single point].
For `Cc1cc(=O)c2ccc3ccccc3c2[nH]1`, the Potency was inconclusive: 29.1 µM [falling, single point].
For `Cc1ccc(CNc2ncnc3ccc(-c4c(C)noc4C)cc23)o1`, the Potency was inconclusive: 14.6 µM [falling, partial curve, poor fit].
With `Cn1c(Cn2nnc3ccccc32)nnc1SCC(=O)NCc1ccc2c(c1)OCO2` the Potency was inconclusive: 2.91 µM [falling, partial curve, poor fit].
In the case of `COc1ccccc1CNC(=O)COCc1cc(-c2cccs2)on1`, the Potency is reported as inconclusive: 32.6 µM [falling, single point].
For `Cc1ccc(N(CC(C)C)S(=O)(=O)c2nnc(NC(=O)C(C)C)s2)cc1`, the Potency was inconclusive: 29.1 µM [activator, single point].
